Reference: patent US20230355711A1 (BAYLOR COLLEGE OF MEDICINE, published 2023)
Several values for one entry are separate records, joined by “and”; a condition that tells them apart may be missing. Identical values can stand only once. Like-named read-outs stand apart in the source and are kept apart here.

What was measured:
[1] = biological target: T1, recombinant SARS-CoV-2 spike protein (S1S2ECD-His; Sino Biological) (SARS-CoV-2, UniProt P0DTC2 14-1213)
[2] = biological target: T1, recombinant SARS-CoV-2 spike protein …; remark: listed apart in the source

B1: recombinant human rod domain of vimentin (rhRod) (other, not shown: small tags and cut ends)
chain: FKNTRTNEKVELQELNDRFANYIDKVRFLEQQNKILLAELEQLKGQGKSRLGDLYEEEMRELRRQVDQLTNDKARVEVERDNLAEDIMRLREKLQEEMLQREEAENTLQSFRQDVDNASLARLDLERKVESLQEEIAFLKKLHEEEIQELQAQIQEQHVQIDVDVSKPDLTAALRDVRQQYESVAAKNLQEAEEWYKSKFADLSEAANRNNDALRQAKQESTEYRRQVQSLTCEVDALKGTNESLERQMREMEENFAVEAANYQDTIGRLQDEIQNMKEEMARHLREYQDLLNVKMALDIEIATYRKLLEGE
For B1, which Kd [1] is on record?
Its Kd is 500 nM and 340 nM.

What about the Kd [2] of the same binder?
The Kd was 400 nM and 380 nM and 280 nM and 180 nM.
